# Structures can show the parent of a compound that is named as a salt. This is one part of the list. This data set is noisy: repeats of one test often differ as much as different tests do.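 Cells: ReNCell VM human fetal ventral-midbrain neural progenitors, differentiated mitogen-free. Blinded raters compared doublecortin-stained (early neurons) or tyrosine hydroxylase-stained (dopaminergic neurons) images with untreated wells, where 0 means no change. After repeats and both raters were averaged, compounds scoring 2 or above became hits for retesting.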
# How the values were obtained:
# ReNCell VM [1] = assay: neuronal differentiation score (DCX+ cell fraction vs untreated, manual image score) (score (-3 to 3)); higher = more neuronal differentiation; conditions: 2 uM, 2 weeks
# ReNCell VM [2] = assay: dopaminergic neuron differentiation score (TH+ cell fraction vs untreated, manual image score) (score (0 to 3)); higher = more TH+ dopaminergic neuron differentiation; conditions: 2 uM, 4 weeks, BDNF 10 ng/ml + GDNF 10 ng/ml
compound,measurement,setting,value
CC1COc2c(N3CCN(C)CC3)c(F)cc3c(=O)c(C(=O)O)cn1c23 (stereo not given),neuronal differentiation score,ReNCell VM [1]; library: Spectrum,inactive: -1
same,dopaminergic neuron differentiation score,ReNCell VM [2]; library: Spectrum,inactive: 0
CC(=O)/N=c1/sc(S(N)(=O)=O)nn1C,neuronal differentiation score,ReNCell VM [1]; library: Spectrum,inactive: 0
same,dopaminergic neuron differentiation score,ReNCell VM [2]; library: Spectrum,inactive: 0
Nc1nc2c(ncn2COC(CO)CO)c(=O)[nH]1,neuronal differentiation score,ReNCell VM [1]; library: Spectrum,inactive: 0
same,dopaminergic neuron differentiation score,ReNCell VM [2]; library: Spectrum,inactive: 0
CC1(C)S[C@@H]2[C@H](NC(=O)[C@H](N)c3ccccc3)C(=O)N2[C@H]1C(=O)OC1OC(=O)c2ccccc21 (stereo not given in full) [Talampicillin hydrochloride],neuronal differentiation score,ReNCell VM [1]; library: Prestwick,inactive: 0
same,dopaminergic neuron differentiation score,ReNCell VM [2]; library: Prestwick,inactive: 0
CNCCc1cnc(CCC(c2ccccc2)c2ccccc2)[nH]1 [N-Methylhistaprodifen dioxalate salt],neuronal differentiation score,ReNCell VM [1]; library: LOPAC,inactive: 0
same,dopaminergic neuron differentiation score,ReNCell VM [2]; library: LOPAC,inactive: 0
COc1cc(OC)c(NC(=O)Nc2cc(C)on2)cc1Cl,neuronal differentiation score,ReNCell VM [1]; library: Tocriscreen,inactive: 0
same,dopaminergic neuron differentiation score,ReNCell VM [2]; library: Tocriscreen,inactive: 0
Nc1nccc2c1ncn2[C@@H]1O[C@H](CO)[C@@H](O)[C@H]1O [3-deazaadenosine],neuronal differentiation score,ReNCell VM [1]; library: LOPAC,inactive: -1
same,dopaminergic neuron differentiation score,ReNCell VM [2]; library: LOPAC,inactive: 0
NNc1nncc2ccccc12,neuronal differentiation score,ReNCell VM [1]; library: Spectrum,inactive: 0
same,dopaminergic neuron differentiation score,ReNCell VM [2]; library: Spectrum,inactive: 0
O=C1c2ccccc2C(=O)C1c1ccc(Br)cc1,neuronal differentiation score,ReNCell VM [1]; library: Spectrum,inactive: 0
same,dopaminergic neuron differentiation score,ReNCell VM [2]; library: Spectrum,inactive: 0
COc1ccc2c(c1)O[C@@H]1COc3cc(OC)c(OC)cc3[C@@H]1C2=O,neuronal differentiation score,ReNCell VM [1]; library: Spectrum,inactive: 0
same,dopaminergic neuron differentiation score,ReNCell VM [2]; library: Spectrum,inactive: 0
"O=C(O)[C@@H]1C[C@H](C(=O)O)N1 [cis-Azetidine-2,4-dicarboxylic acid]",neuronal differentiation score,ReNCell VM [1]; library: LOPAC,inactive: 1
same,dopaminergic neuron differentiation score,ReNCell VM [2]; library: LOPAC,inactive: 0
N[C@H]1CONC1=O [L-Cycloserine],neuronal differentiation score,ReNCell VM [1]; library: LOPAC,inactive: 0
same,dopaminergic neuron differentiation score,ReNCell VM [2]; library: LOPAC,inactive: 0
COc1ccccc1N1CCN(CC(O)COc2cccc3ccccc23)CC1 (stereo not given) [Naftopidil hydrochloride],neuronal differentiation score,ReNCell VM [1]; library: Tocriscreen,inactive: 0
same,dopaminergic neuron differentiation score,ReNCell VM [2]; library: Tocriscreen,inactive: 0
C[C@@H](O[C@H]1OCCN(Cc2n[nH]c(=O)[nH]2)[C@H]1c1ccc(F)cc1)c1cc(C(F)(F)F)cc(C(F)(F)F)c1 [Aprepitant],neuronal differentiation score,ReNCell VM [1]; library: Prestwick,inactive: 0
same,dopaminergic neuron differentiation score,ReNCell VM [2]; library: Prestwick,inactive: 0
"CC(=O)C1(O)C(O)C[C@H]2[C@@H]3CCC4CC(O)CC[C@]4(C)[C@H]3CC[C@@]21C (stereo not given in full) [3,16,17-trihydroxy-17-acetyl-androstane]",neuronal differentiation score,ReNCell VM [1]; library: Natural,inactive: 0
same,dopaminergic neuron differentiation score,ReNCell VM [2]; library: Natural,inactive: 0
CC(=O)O[C@@H]1C[C@H]2C(C)(C)C(=O)C=C[C@]2(C)[C@H]2CC[C@@]3(C)[C@H](c4ccoc4)OC(=O)[C@H]4O[C@]43[C@@]21C [Gedunin],neuronal differentiation score,ReNCell VM [1]; library: Tocriscreen,inactive: 0
same,dopaminergic neuron differentiation score,ReNCell VM [2]; library: Tocriscreen,inactive: 0
N=C(N)NC(=O)c1nc(Cl)c(N)nc1N [Amiloride hydrochloride dihydrate],neuronal differentiation score,ReNCell VM [1]; library: Prestwick,inactive: 0
same,dopaminergic neuron differentiation score,ReNCell VM [2]; library: Prestwick,inactive: 0
CC(=O)N[C@@H](CC(C)C)C(=O)O [N-Acetyl-L-leucine],neuronal differentiation score,ReNCell VM [1]; library: Prestwick,inactive: 0
same,dopaminergic neuron differentiation score,ReNCell VM [2]; library: Prestwick,inactive: 0
CC(=O)O[C@H]1C[C@@H](OC(C)=O)C(C)(C)[C@@H]2C[C@@H](OC(C)=O)[C@]3(C)[C@H](CC[C@@]4(C)[C@H](c5ccoc5)OC(=O)[C@H]5O[C@@]534)[C@@]12C,neuronal differentiation score,ReNCell VM [1]; library: Spectrum,inactive: 0
same,dopaminergic neuron differentiation score,ReNCell VM [2]; library: Spectrum,inactive: 1
C[C@]12CC[C@@H]3c4ccc(O)cc4CC[C@H]3[C@@H]1C[C@H](O)[C@@H]2O,neuronal differentiation score,ReNCell VM [1]; library: Spectrum,inactive: 0
same,dopaminergic neuron differentiation score,ReNCell VM [2]; library: Spectrum,inactive: 0
CO/N=C(\C(=O)N[C@@H]1C(=O)N2C(C(=O)O)=C(C[N+]3(C)CCCC3)CS[C@H]12)c1csc(N)n1,neuronal differentiation score,ReNCell VM [1]; library: Spectrum,inactive: 0
same,dopaminergic neuron differentiation score,ReNCell VM [2]; library: Spectrum,inactive: 0
CCOc1ccccc1OCC1CNCCO1 (stereo not given) [Viloxazine hydrochloride],neuronal differentiation score,ReNCell VM [1]; library: Prestwick,inactive: 0
same,dopaminergic neuron differentiation score,ReNCell VM [2]; library: Prestwick,inactive: 0
CC(=O)C1=C(O)C=C2Oc3c(C(C)=O)c(O)c(C)c(O)c3[C@@]2(C)C1=O [(+)-Usnic acid],neuronal differentiation score,ReNCell VM [1]; library: Phytochemical,inactive: 0
same,dopaminergic neuron differentiation score,ReNCell VM [2]; library: Phytochemical,inactive: 0
CC(=O)Oc1ccccc1C(=O)Nc1ncc([N+](=O)[O-])s1,neuronal differentiation score,ReNCell VM [1]; library: Spectrum,inactive: 0
same,dopaminergic neuron differentiation score,ReNCell VM [2]; library: Spectrum,inactive: 0
O=C(O)CN1C(=O)c2cccc3cccc(c23)C1=O [Alrestatin],neuronal differentiation score,ReNCell VM [1]; library: Tocriscreen,inactive: 0
same,dopaminergic neuron differentiation score,ReNCell VM [2]; library: Tocriscreen,inactive: 0
CC(C)[C@H](CO)Nc1nc(Nc2cccc(Cl)c2)c2ncn(C(C)C)c2n1 [Purvalanol A],neuronal differentiation score,ReNCell VM [1]; library: Tocriscreen,inactive: 0
same,dopaminergic neuron differentiation score,ReNCell VM [2]; library: Tocriscreen,inactive: 0
NC(N)=Nc1nc(CSCC/C(N)=N/S(N)(=O)=O)cs1,neuronal differentiation score,ReNCell VM [1]; library: Spectrum,inactive: -1
same,dopaminergic neuron differentiation score,ReNCell VM [2]; library: Spectrum,inactive: 0
CC(C)NC[C@H](O)COc1cccc2ccccc12 [(S)-propranolol hydrochloride],neuronal differentiation score,ReNCell VM [1]; library: Prestwick,inactive: 0
same,dopaminergic neuron differentiation score,ReNCell VM [2]; library: Prestwick,inactive: 0
CC(C)OC(=O)CCC/C=C\C[C@@H]1[C@@H](/C=C/[C@@H](O)COc2cccc(C(F)(F)F)c2)[C@H](O)C[C@@H]1O,neuronal differentiation score,ReNCell VM [1]; library: Spectrum,inactive: 1
same,dopaminergic neuron differentiation score,ReNCell VM [2]; library: Spectrum,inactive: 0
CC(C)N1CCN(c2ccc(OCC3COC(Cn4cncn4)(c4ccc(Cl)cc4Cl)O3)cc2)CC1 (stereo not given),neuronal differentiation score,ReNCell VM [1]; library: Spectrum,inactive: 0
same,dopaminergic neuron differentiation score,ReNCell VM [2]; library: Spectrum,inactive: 0
CC(=O)N1CCCC1C(=O)O (stereo not given),neuronal differentiation score,ReNCell VM [1]; library: Spectrum,inactive: 0
same,dopaminergic neuron differentiation score,ReNCell VM [2]; library: Spectrum,inactive: 0
"Nc1ncnc2c1ncn2[C@@H]1O[C@H](COP(=O)(O)CP(=O)(O)OP(=O)(O)O)[C@H](O)C1O (stereo partly drawn) [alpha,beta-Methylene adenosine 5'-triphosphate dilithium]",neuronal differentiation score,ReNCell VM [1]; library: LOPAC,inactive: 0
same,dopaminergic neuron differentiation score,ReNCell VM [2]; library: LOPAC,inactive: 0
COc1cc(OC)c(C(C)=O)c(O)c1C,neuronal differentiation score,ReNCell VM [1]; library: Spectrum,inactive: 0
same,dopaminergic neuron differentiation score,ReNCell VM [2]; library: Spectrum,inactive: 1
CC(C)Nc1ncccn1,neuronal differentiation score,ReNCell VM [1]; library: Spectrum,inactive: 0
same,dopaminergic neuron differentiation score,ReNCell VM [2]; library: Spectrum,inactive: 0
CC(=O)O[C@]1(C(C)=O)CC[C@H]2[C@@H]3C=C(C)C4=CC(=O)CC[C@]4(C)[C@H]3CC[C@@]21C [Megestrol acetate],neuronal differentiation score,ReNCell VM [1]; library: Prestwick,inactive: 0
same,dopaminergic neuron differentiation score,ReNCell VM [2]; library: Prestwick,inactive: 0

# A stretch from further up, as a working copy:
compound,measurement,setting,value
CC(C)[C@H](CO)Nc1nc(Nc2cccc(Cl)c2)c2ncn(C(C)C)c2n1 [Purvalanol A],dopaminergic neuron differentiation score,ReNCell VM [2]; library: Tocriscreen,inactive: 0
NC(N)=Nc1nc(CSCC/C(N)=N/S(N)(=O)=O)cs1,neuronal differentiation score,ReNCell VM [1]; library: Spectrum,inactive: -1
same,dopaminergic neuron differentiation score,ReNCell VM [2]; library: Spectrum,inactive: 0
CC(C)NC[C@H](O)COc1cccc2ccccc12 [(S)-propranolol hydrochloride],neuronal differentiation score,ReNCell VM [1]; library: Prestwick,inactive: 0
same,dopaminergic neuron differentiation score,ReNCell VM [2]; library: Prestwick,inactive: 0
CC(C)OC(=O)CCC/C=C\C[C@@H]1[C@@H](/C=C/[C@@H](O)COc2cccc(C(F)(F)F)c2)[C@H](O)C[C@@H]1O,neuronal differentiation score,ReNCell VM [1]; library: Spectrum,inactive: 1
same,dopaminergic neuron differentiation score,ReNCell VM [2]; library: Spectrum,inactive: 0
CC(C)N1CCN(c2ccc(OCC3COC(Cn4cncn4)(c4ccc(Cl)cc4Cl)O3)cc2)CC1 (stereo not given),neuronal differentiation score,ReNCell VM [1]; library: Spectrum,inactive: 0
same,dopaminergic neuron differentiation score,ReNCell VM [2]; library: Spectrum,inactive: 0
CC(=O)N1CCCC1C(=O)O (stereo not given),neuronal differentiation score,ReNCell VM [1]; library: Spectrum,inactive: 0
same,dopaminergic neuron differentiation score,ReNCell VM [2]; library: Spectrum,inactive: 0
"Nc1ncnc2c1ncn2[C@@H]1O[C@H](COP(=O)(O)CP(=O)(O)OP(=O)(O)O)[C@H](O)C1O (stereo partly drawn) [alpha,beta-Methylene adenosine 5'-triphosphate dilithium]",neuronal differentiation score,ReNCell VM [1]; library: LOPAC,inactive: 0
same,dopaminergic neuron differentiation score,ReNCell VM [2]; library: LOPAC,inactive: 0
COc1cc(OC)c(C(C)=O)c(O)c1C,neuronal differentiation score,ReNCell VM [1]; library: Spectrum,inactive: 0
same,dopaminergic neuron differentiation score,ReNCell VM [2]; library: Spectrum,inactive: 1
CC(C)Nc1ncccn1,neuronal differentiation score,ReNCell VM [1]; library: Spectrum,inactive: 0
